Here are results for four molecules from paper PMC12459091.

Amino acid sequences for entries named in this document (tags omitted).
UniProt P61026: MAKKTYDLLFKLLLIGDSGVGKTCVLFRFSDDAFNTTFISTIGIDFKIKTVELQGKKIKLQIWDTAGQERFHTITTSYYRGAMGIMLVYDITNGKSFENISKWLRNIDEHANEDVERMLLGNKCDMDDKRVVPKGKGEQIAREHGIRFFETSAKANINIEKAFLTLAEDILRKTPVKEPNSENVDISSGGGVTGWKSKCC

Like-named read-outs stand apart in the source and are kept apart here. Results are given in words; binding and its absence hold for the method and conditions named. In cells and extracts the contact can be indirect. Some entries that bind do so weakly or less than the wild type. For part of these data: Tags and fused reporters may be left off the sequences shown.

Test [1] deals with T1, mCherry-RILPL1 (UniProt Q5EBL4).
T1 sequence: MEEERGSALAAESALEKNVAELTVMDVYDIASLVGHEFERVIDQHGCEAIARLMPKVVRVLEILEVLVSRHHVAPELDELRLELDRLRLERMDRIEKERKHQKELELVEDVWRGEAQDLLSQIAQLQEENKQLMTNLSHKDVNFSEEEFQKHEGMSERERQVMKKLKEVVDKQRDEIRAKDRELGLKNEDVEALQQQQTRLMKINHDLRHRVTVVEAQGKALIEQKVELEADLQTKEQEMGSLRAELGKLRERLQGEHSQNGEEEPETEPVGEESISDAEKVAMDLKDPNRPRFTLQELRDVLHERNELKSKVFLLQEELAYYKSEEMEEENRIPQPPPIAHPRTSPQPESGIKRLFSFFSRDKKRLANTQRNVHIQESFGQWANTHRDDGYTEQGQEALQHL
As to the kind of experiment: co-IP; HEK293FT cells transfected with 3xflag-LRRK2 and mCherry-RILPL1 for 24 h, treated or not with LLOME (2 h); lysates in IP buffer (20 mM Tris-HCl pH 7.5, 150 mM NaCl, 1 mM EDTA, 0.3% Triton X-100, 10% glycerol); RFP-Trap magnetic beads 1 h at 4°C; washes with 300 mM NaCl; immunoblot.

Test [2] addresses T1, mCherry-RILPL1. As to the kind of experiment: co-IP; U2OS cells transfected with HaloTag-LRRK2 and mCherry-RILPL1 for 36 h, treated or not with LLOME (2 h) or pre-treated with MLi2; immunoprecipitation with anti-RFP (RFP-Trap) beads; immunoblot.
Test [3] deals with T2, 2xmyc-RILPL1 (UniProt Q5EBL4).
T2 sequence: T1 sequence
As to the kind of experiment: co-IP; HEK293T cells transfected with 3xflag-LRRK2 or HaloTag-LRRK2 and 2xmyc-RILPL1 for 24 h (one group also with Ubc-3xHA-JIP4), treated or not with LLOME (2 h); myc-Trap magnetic beads 1 h at 4°C; washes with 300 mM NaCl; immunoblot.

Test [4] deals with T2, 2xmyc-RILPL1. Described as above. The source holds these as a separate data set.

With “p150^Glued (DCTN1) (from UniProt Q14203-1 1-1278)”, the binding result in test [1] is on record as “binds”.

pT73-RAB10 (from UniProt P61026 1-200): the binding entry in test [2], in test [3] and in test [1] was “binds” throughout.

B1: pS106-RAB12 (protein, UniProt Q6IQ22-2 1-244)
chain: MDPGAALQRRAGGGGGLGAGSPALSGGQGRRRKQPPRPADFKLQVIIIGSRGVGKTSLMERFTDDTFCEACKSTVGVDFKIKTVELRGKKIRLQIWDTAGQERFNSITSAYYRSAKGIILVYDITKKETFDDLPKWMKMIDKYASEDAELLLVGNKLDCETDREITRQQGEKFAQQITGMRFCEASAKDNFNVDEIFLKLVDDILKKMPLDILRNELSNSILSLQPEPEIPPELPPPRPHVRCC
modifications: phosphoserine at 106 (pS106)
Take B1: in test [4], the binding entry is reported as “binds”.

B2: C-jun-amino-terminal kinase–interacting protein 4 (JIP4) (protein, UniProt O60271 1-1321)
chain: MELEDGVVYQEEPGGSGAVMSERVSGLAGSIYREFERLIGRYDEEVVKELMPLVVAVLENLDSVFAQDQEHQVELELLRDDNEQLITQYEREKALRKHAEEKFIEFEDSQEQEKKDLQTRVESLESQTRQLELKAKNYADQISRLEEREAELKKEYNALHQRHTEMIHNYMEHLERTKLHQLSGSDQLESTAHSRIRKERPISLGIFPLPAGDGLLTPDAQKGGETPGSEQWKFQELSQPRSHTSLKVSNSPEPQKAVEQEDELSDVSQGGSKATTPASTANSDVATIPTDTPLKEENEGFVKVTDAPNKSEISKHIEVQVAQETRNVSTGSAENEEKSEVQAIIESTPELDMDKDLSGYKGSSTPTKGIENKAFDRNTESLFEELSSAGSGLIGDVDEGADLLGMGREVENLILENTQLLETKNALNIVKNDLIAKVDELTCEKDVLQGELEAVKQAKLKLEEKNRELEEELRKARAEAEDARQKAKDDDDSDIPTAQRKRFTRVEMARVLMERNQYKERLMELQEAVRWTEMIRASRENPAMQEKKRSSIWQFFSRLFSSSSNTTKKPEPPVNLKYNAPTSHVTPSVKKRSSTLSQLPGDKSKAFDFLSEETEASLASRREQKREQYRQVKAHVQKEDGRVQAFGWSLPQKYKQVTNGQGENKMKNLPVPVYLRPLDEKDTSMKLWCAVGVNLSGGKTRDGGSVVGASVFYKDVAGLDTEGSKQRSASQSSLDKLDQELKEQQKELKNQEELSSLVWICTSTHSATKVLIIDAVQPGNILDSFTVCNSHVLCIASVPGARETDYPAGEDLSESGQVDKASLCGSMTSNSSAETDSLLGGITVVGCSAEGVTGAATSPSTNGASPVMDKPPEMEAENSEVDENVPTAEEATEATEGNAGSAEDTVDISQTGVYTEHVFTDPLGVQIPEDLSPVYQSSNDSDAYKDQISVLPNEQDLVREEAQKMSSLLPTMWLGAQNGCLYVHSSVAQWRKCLHSIKLKDSILSIVHVKGIVLVALADGTLAIFHRGVDGQWDLSNYHLLDLGRPHHSIRCMTVVHDKVWCGYRNKIYVVQPKAMKIEKSFDAHPRKESQVRQLAWVGDGVWVSIRLDSTLRLYHAHTYQHLQDVDIEPYVSKMLGTGKLGFSFVRITALMVSCNRLWVGTGNGVIISIPLTETNKTSGVPGNRPGSVIRVYGDENSDKVTPGTFIPYCSMAHAQLCFHGHRDAVKFFVAVPGQVISPQSSSSGTDLTGDKAGPSAQEPGSQTPLKSMLVISGGEGYIDFRMGDEGGESELLGEDLPLEPSVTKAERSHLIVWQVMYGNE
Take B2: the binding entry in test [4] is “no binding”.
